Measured values: paper PMC12053449
Results are given in words; binding and its absence hold for the method and conditions named. Some results given as binding are weak or reduced against the parent protein; the word gives no strength.

Amino acid sequences for entries named in this document (tags omitted).
UniProt P29590: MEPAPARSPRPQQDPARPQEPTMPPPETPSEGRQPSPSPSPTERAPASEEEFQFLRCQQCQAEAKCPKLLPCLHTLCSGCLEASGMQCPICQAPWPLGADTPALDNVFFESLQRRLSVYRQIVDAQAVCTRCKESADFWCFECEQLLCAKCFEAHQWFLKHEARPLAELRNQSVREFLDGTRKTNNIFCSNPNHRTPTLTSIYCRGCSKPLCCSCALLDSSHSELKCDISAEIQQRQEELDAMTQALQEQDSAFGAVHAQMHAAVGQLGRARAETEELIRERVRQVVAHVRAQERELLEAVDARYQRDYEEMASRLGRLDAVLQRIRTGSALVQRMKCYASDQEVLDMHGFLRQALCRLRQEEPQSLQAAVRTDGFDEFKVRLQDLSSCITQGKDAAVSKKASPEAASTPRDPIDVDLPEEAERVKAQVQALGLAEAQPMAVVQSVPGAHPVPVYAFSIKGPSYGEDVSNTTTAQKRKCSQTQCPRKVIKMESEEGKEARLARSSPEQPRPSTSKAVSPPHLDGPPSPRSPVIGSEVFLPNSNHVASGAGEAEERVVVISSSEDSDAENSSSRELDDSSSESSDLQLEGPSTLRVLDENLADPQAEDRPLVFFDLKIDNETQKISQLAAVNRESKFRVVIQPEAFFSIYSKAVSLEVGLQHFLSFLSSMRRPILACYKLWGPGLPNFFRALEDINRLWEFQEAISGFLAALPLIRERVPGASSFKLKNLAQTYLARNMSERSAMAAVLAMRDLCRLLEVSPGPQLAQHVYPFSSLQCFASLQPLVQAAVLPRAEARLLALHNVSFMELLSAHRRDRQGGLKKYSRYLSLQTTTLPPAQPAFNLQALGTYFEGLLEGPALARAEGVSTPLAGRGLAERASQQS

Biological target: Flag-tagged wild-type PML (UniProt P29590)
Experiment: native gel or EMSA; native polyacrylamide gel electrophoresis of WT and domain truncated PML; M monomer, D dimer, P polymer (Fig. 2F)

binding: binds
Substance: Flag-tagged wild-type PML (from UniProt P29590 1-882)
